This assay relates to H. influenzae. As to the kind of experiment: microbe, parasite or virus in culture. The assay is classed as cell-based, Haemophilus influenzae. As to conditions: for MIC: Haemophilus influenzae. The method, then:
L-broth or L-agar (Difco) is used for routine growth of Escherichia coli (E. coli). Chocolate agar plates (Remel) are used for routine growth of H. influenzae. Brain heart infusion broth (Remel) supplemented with 10 μg/mL of β-NAD (Fluka) and 10 μg/mL hemin/vitamin K solution (sBHI) (Remel) is used for liquid broth cultivation of H. influenzae. For induction of natural competence in H. influenzae, nutritional downshift is induced using M-IV medium as described previously. See Poje and Redfield, Methods Mol Med, Vol. 71, No., pp. 57-70 (2003). Kanamycin is added to growth media at 50 μg/mL (E. coli) or 5 μg/mL (H. influenzae) as required.
Antibiotic and substrate MICs are determined by broth microdilution using 2-fold dilution in HTM in accordance with the procedures established by the National Committee for Clinical Laboratory Standards (NCCLS). See NCCLS, Approved standard M7-A5, Wayne, Pa. (2003). PDF inhibitors are synthesized at the Novartis Institutes for BioMedical Research, Cambridge, Mass. All remaining antibiotics are obtained from Sigma (St. Louis, Mo.).

≈ marks a conversion by molar mass, not a printed value. Like-named read-outs stand apart in the source and are kept apart here.

This note sets out measurements from patent US20090156645A1, “Method for Increasing the Susceptibility of Peptide Deformylase Inhibitors by Using Efflux Pump Inhibitors” (priority 2004, published 2009).

In turn, `CCC[C@@H]1C[C@@H](C(=O)N[C@@H]([C@H]2O[C@H](SC)[C@H](O)[C@@H](O)[C@H]2O)[C@H](C)Cl)N(C)C1` [CLD, clindamycin] displayed a decrease in susceptibility of 4 fold. Also, the MIC (strain NB65016-CDS0004, knockout acrB) was found to be 0.5 µg/mL (≈ 1.18 µM). Besides, the MIC (strain NB65027-CDS0003, knockout HI1462) worked out at 2 µg/mL (≈ 4.71 µM). Also, the MIC (strain NB65027-CDS0021, knockout acrB) came to 2 µg/mL (≈ 4.71 µM). Further, for the setting “strain NB65044-CDS0001 (NB65044 acrB::Km)”, the MIC came out at 0.5 µg/mL (≈ 1.18 µM). The molecule also gave an MIC (strain NB65044-CDS0008, knockout acrR) of 32 µg/mL (≈ 75.3 µM). Under “strain NB65044-CDS0011 (acrR mutant selected on 8 μg/mL LBM415, stop codon)”, this molecule showed an MIC of 32 µg/mL (≈ 75.3 µM). Where the note is “strain NB65044-CDS0014 (acrR mutant selected on 8 μg/mL LBM415, L→P)”, the MIC is 32 µg/mL (≈ 75.3 µM). In addition, where the note is “strain NB65044-CDS0020 (Table 1: NB65044 acrB::Km)”, the MIC amounted to 0.5 µg/mL (≈ 1.18 µM). In addition, the MIC (strain NB65051-CDS0002, knockout acrB) amounted to 0.5 µg/mL (≈ 1.18 µM). The molecule also gave an MIC (strain NB65051-CDS0022, knockout HI1462) of 0.5 µg/mL (≈ 1.18 µM). For the same molecule, the MIC (strain NB65063-CDS0005, knockout acrB) amounted to 0.5 µg/mL (≈ 1.18 µM). In addition, the MIC (strain NB65069-CDS0007, knockout acrB) stood at 0.5 µg/mL (≈ 1.18 µM). Under “strain NB65076-CDS0006, knockout acrB”, this molecule registered an MIC of 0.5 µg/mL (≈ 1.18 µM). Also, where the note is “two acrR mutants of NB65044 selected on 8 μg/mL LBM415 versus parent”, the decrease in susceptibility is on record as 4 fold.
